# Reference: PubChem BioAssay AID248 (DTP/NCI, 2004)
# The list does not hold the whole screen: it gathers tests that were run many times, whatever their T/C, doses with no T/C, and many T/C values between a quarter and a half above the control. Further doses and runs are listed elsewhere. T/C is the treated group as % of the vehicle group. Some entries give survivors of the animals treated and no T/C: the source holds a T/C of zero for them, seemingly a mark for toxic or unscored doses. Some doses without a T/C left all or most animals alive at the check, yet need not have been tolerated: the source hardly ever lists a survival T/C far under the control, and the zero likely stands for such cases as well. Counts of survivors are from the toxicity check (mostly the fifth day) where no day follows; animals may have died later. Schedules are NCI's codes, taken here to give the interval after Q, in days (D) or hours (H), and the number of doses after X. Some entries were tested several times; their values stand side by side, smallest first. Some schedules carry Z or #; the key to these is not given. Some molecules as drawn cover several salts, stereoisomers or complexes of the source; a dose is that of the sample tested. For survival time, this PubChem deposit counts one and a half times the control or more as active, and values a quarter to a half above the control carry no call in these data; other NCI protocols may use other cut-offs. Some T/C values carry the count of animals alive at the toxicity check (mostly the fifth day); without a count, all were alive then.
# Tested on: L1210 leukemia ip in BDF1 mice, survival T/C
# Assay: NCI In Vivo Anticancer Drug Screen. Data for tumor model L1210 Leukemia (intraperitoneal) in B6D2F1 (BDF1) mice
# Conditions: T/C endpoint: mean survival time, higher T/C = longer survival
# [1] = dose: 100.0 mg/kg/injection, schedule: Q04DX003 (ip), vehicle: saline
# [2] = dose: 400.0 mg/kg/injection, schedule: Q04DX003 (ip), vehicle: saline
# [3] = dose: 100.0 mg/kg/injection, schedule: Q01DX009 (ip), vehicle: Klucel (hydroxypropylcellulose) (HPC)
# [4] = dose: 200.0 mg/kg/injection, schedule: Q01DX009 (ip), vehicle: Klucel (hydroxypropylcellulose) (HPC)
# [5] = dose: 400.0 mg/kg/injection, schedule: Q01DX009 (ip), vehicle: Klucel (hydroxypropylcellulose) (HPC)
# [6] = dose: 200.0 mg/kg/injection, schedule: Q04DX003 (ip), vehicle: saline with Tween-80
# [7] = dose: 100.0 mg/kg/injection, schedule: Q04DX003 (ip), vehicle: Klucel (hydroxypropylcellulose) (HPC)
# [8] = dose: 200.0 mg/kg/injection, schedule: Q04DX003 (ip), vehicle: Klucel (hydroxypropylcellulose) (HPC)
# [9] = dose: 400.0 mg/kg/injection, schedule: Q04DX003 (ip), vehicle: Klucel (hydroxypropylcellulose) (HPC)
# [10] = dose: 100.0 mg/kg/injection, schedule: Q04DX003 (ip), vehicle: saline with Tween-80
# [11] = dose: 100.0 mg/kg/injection, schedule: Q01DX001 (ip), vehicle: saline
# [12] = dose: 400.0 mg/kg/injection, schedule: Q01DX001 (ip), vehicle: saline
# [13] = dose: 300.0 mg/kg/injection, schedule: Q01DX001 (ip), vehicle: saline
# [14] = dose: 200.0 mg/kg/injection, schedule: Q01DX001 (ip), vehicle: saline
# [15] = dose: 200.0 mg/kg/injection, schedule: Q01DX001 (ip), vehicle: carboxymethylcellulose (CMC)
# [16] = dose: 400.0 mg/kg/injection, schedule: Q01DX001 (ip), vehicle: carboxymethylcellulose (CMC)
structure (smiles),measurement,setting,value
COC(=O)C1=CCCN(C)C1,survivor count,[1],2 of 4 and 6 of 6
same,survivor count,"dose: 200.0 mg/kg/injection, schedule: Q04DX003 (ip), vehicle: saline",1 of 6 and 2 of 4
same,survivor count,[2],0 of 4 and 1 of 6
NC(=O)c1ccccc1NC(=O)Nc1cccc(C(F)(F)F)c1,survivor count,[3],6 of 6
same,survivor count,[4],6 of 6
same,survivor count,[5],6 of 6
CCC/C(=N\Nc1ccc([N+](=O)[O-])cc1[N+](=O)[O-])c1ccccc1,survivor count,[6],6 of 6
CCn1cnc2c(SC3CCCC3)ncnc21,T/C,"dose: 250.0 mg/kg/injection, schedule: Q01DX015 (ip), vehicle: carboxymethylcellulose (CMC)",142 % of control
same,T/C,"dose: 250.0 mg/kg/injection, schedule: Q01DX Z (ip), vehicle: carboxymethylcellulose (CMC)",127 % of control
same,T/C,"dose: 375.0 mg/kg/injection, schedule: Q01DX015 (ip), vehicle: carboxymethylcellulose (CMC)",141 % of control
same,T/C,"dose: 500.0 mg/kg/injection, schedule: Q01DX015 (ip), vehicle: carboxymethylcellulose (CMC)",145 % of control [9 of 10 alive]
FC(F)(F)C(=Cc1nc2ccccc2s1)C(F)(F)F,survivor count,"dose: 50.0 mg/kg/injection, schedule: Q01DX009 (ip), vehicle: Klucel (hydroxypropylcellulose) (HPC)",0 of 6
same,survivor count,[7],5 of 6
same,survivor count,[8],2 of 6
same,survivor count,[9],0 of 6
COC1(OC)C(Cl)=C(Cl)C(Cl)=C1Cl,survivor count,"dose: 25.0 mg/kg/injection, schedule: Q04DX003 (ip), vehicle: saline with Tween-80",1 of 6
same,survivor count,"dose: 50.0 mg/kg/injection, schedule: Q04DX003 (ip), vehicle: saline with Tween-80",0 of 6
same,survivor count,[10],0 of 6
CC(C)=CCN(CC=C(C)C)CCC(C#N)(CC=C(C)C)c1cccc2ccccc12 (stereo unspecified),survivor count,[7],0 of 6
same,survivor count,[8],0 of 6
same,survivor count,[9],0 of 6
O=CNNC(=O)c1cccc([N+](=O)[O-])c1,survivor count,"dose: 400.0 mg/kg/injection, schedule: Q04DX003 (ip), vehicle: other",2 of 6
Cc1cc(C)c2c(C#N)cn(-c3ccc([N+](=O)[O-])cc3)c2n1,survivor count,[11],3 of 3
S=C(S)NCCCNC(=S)S,survivor count,[12],3 of 6
CNC(=O)c1cc(NC(=O)Nc2ccc(C3=NCCN3)cc2)cc(NC(=O)Nc2ccc(C3=NCCN3)cc2)c1,T/C,"dose: 30.0 mg/kg/injection, schedule: Q01DX Z (ip), vehicle: saline",144 % of control
CN(C)/C=C1\CCOC1=O,survivor count,"dose: 400.0 mg/kg/injection, schedule: Q04DX002 (ip), vehicle: saline",1 of 3
NC(C(=O)c1ccccc1)c1ccccc1.[Cl][Sn][Cl] (stereo unspecified),survivor count,[13],1 of 6
Cc1ccccc1N1CCN(c2c3c(nc4ccccc24)CCCCC3)CC1,survivor count,[14],3 of 4
O=[N+]([O-])c1ccc(SCCCN2CCCCC2)c([N+](=O)[O-])c1,survivor count,"dose: 100.0 mg/kg/injection, schedule: Q01DX001 (ip), vehicle: carboxymethylcellulose (CMC)",1 of 4
same,survivor count,[15],0 of 4
same,survivor count,[16],0 of 4
CSc1cccc[n+]1C,survivor count,"dose: 150.0 mg/kg/injection, schedule: Q01DX001 (ip), vehicle: saline",3 of 6
same,survivor count,[13],0 of 6
CC#CCCC(=O)OCCCCC,survivor count,"dose: 400.0 mg/kg/injection, schedule: Q04DX002 (ip), vehicle: saline with Tween-80",3 of 3
O=C(Nc1ccc(Br)cc1)Oc1ccc(-c2ccccc2)cc1,survivor count,[3],6 of 6
same,survivor count,[4],6 of 6
c1ccc([Si]2(c3ccccc3)[Si](c3ccccc3)(c3ccccc3)[Si](c3ccccc3)(c3ccccc3)[Si](c3ccccc3)(c3ccccc3)[Si](c3ccccc3)(c3ccccc3)[Si]2(c2ccccc2)c2ccccc2)cc1,survivor count,"dose: 25.6 mg/kg/injection, schedule: Q04DX002 (ip), vehicle: saline with Tween-80",3 of 3
same,survivor count,"dose: 64.0 mg/kg/injection, schedule: Q04DX002 (ip), vehicle: saline with Tween-80",3 of 3
NCCCCCCNC(=O)CCC(=O)NCCCCCCN,survivor count,"dose: 256.0 mg/kg/injection, schedule: Q01DX Z (ip), vehicle: saline",0 of 6
CCC(=O)OCN1C(=O)C2C3CCC(O3)C2C1=O (stereo unspecified),survivor count,"dose: 350.0 mg/kg/injection, schedule: Q01DX009 (ip), vehicle: other",0 of 6
c1nnc(NCNc2nncs2)s1,T/C,"dose: 4.0 mg/kg/injection, schedule: Q01DX009 (ip), vehicle: Klucel (hydroxypropylcellulose) (HPC)",131 % of control
same,T/C,"dose: 8.0 mg/kg/injection, schedule: Q04DX003 (ip), vehicle: Klucel (hydroxypropylcellulose) (HPC)",125 % of control
same,T/C,"dose: 9.0 mg/kg/injection, schedule: Q01DX009 (ip), vehicle: Klucel (hydroxypropylcellulose) (HPC)",134 % of control
same,T/C,"dose: 13.0 mg/kg/injection, schedule: Q01DX009 (ip), vehicle: Klucel (hydroxypropylcellulose) (HPC)",129 % of control
same,T/C,"dose: 26.0 mg/kg/injection, schedule: Q04DX003 (ip), vehicle: Klucel (hydroxypropylcellulose) (HPC)",132 % of control
same,T/C,"dose: 30.0 mg/kg/injection, schedule: Q01DX009 (ip), vehicle: saline",130 % of control
same,T/C,"dose: 40.0 mg/kg/injection, schedule: Q04DX003 (ip), vehicle: Klucel (hydroxypropylcellulose) (HPC)",130 % of control
same,T/C,"dose: 60.0 mg/kg/injection, schedule: Q04DX003 (ip), vehicle: Klucel (hydroxypropylcellulose) (HPC)",135 % of control
same,T/C,"dose: 88.0 mg/kg/injection, schedule: Q04DX003 (ip), vehicle: Klucel (hydroxypropylcellulose) (HPC)",142 % of control
same,T/C,[1],139 % of control
same,T/C,"dose: 132.0 mg/kg/injection, schedule: Q04DX003 (ip), vehicle: Klucel (hydroxypropylcellulose) (HPC)",148 % of control
same,T/C,[14],127 % of control
same,T/C,[8],148 % of control
same,T/C,[12],130 % of control
same,survivor count,[2],6 of 6
Cc1ccc(Cl)cc1NC(=O)Nc1ccccc1F,survivor count,[10],6 of 6
same,survivor count,[6],6 of 6
same,survivor count,"dose: 400.0 mg/kg/injection, schedule: Q04DX003 (ip), vehicle: saline with Tween-80",6 of 6
CN(Cc1ccccc1)C(Cc1c[nH]c2ccccc12)C(=O)O (stereo unspecified),survivor count,[14],6 of 6
same,survivor count,[12],3 of 6
Cc1cc(OC(=O)Nc2ccccc2C(F)(F)F)cc(C)c1Cl,survivor count,"dose: 100.0 mg/kg/injection, schedule: Q01DX009 (ip), vehicle: saline with Tween-80",6 of 6
same,survivor count,"dose: 200.0 mg/kg/injection, schedule: Q01DX009 (ip), vehicle: saline with Tween-80",6 of 6
same,survivor count,"dose: 400.0 mg/kg/injection, schedule: Q01DX009 (ip), vehicle: saline with Tween-80",5 of 6 and 6 of 6
COc1ccc(/C=C2/CCOC2=O)cc1,survivor count,"dose: 25.0 mg/kg/injection, schedule: Q04DX002 (ip), vehicle: Klucel (hydroxypropylcellulose) (HPC)",0 of 3
same,survivor count,"dose: 50.0 mg/kg/injection, schedule: Q04DX002 (ip), vehicle: Klucel (hydroxypropylcellulose) (HPC)",0 of 3
O=C1NC(=O)C(F)C(O)N1 (stereo unspecified),survivor count,[11],3 of 6
same,survivor count,[14],0 of 6
same,survivor count,[12],0 of 6
Cc1nc(N(C)C)nc(C)c1C#[N+][O-],survivor count,[15],0 of 4
same,survivor count,[16],0 of 4
O=C(O)c1cc(N=C2C=CC(=C(c3ccccc3)c3ccc(Nc4ccc(Cl)c(C(=O)O)c4)cc3)C=C2)ccc1Cl,survivor count,[5],0 of 6
